# Test results from the supplement of paper PMC12872613.
# Counter-ions that a name gives are not always drawn. This is one part of the list. Rule as the data show it: active = 0.7 or more and inactive = the rest. Single values are uncertain, as repeats are few or missing.
# Test system: MiaPaCa-2 CLSA-25
# Assay: cell death relative to DMSO vehicle (fraction); higher = more cytotoxic
# Settings: 5 µM; treatment time 48 h; medium cystine 25 µM
row,Structure (SMILES),cell death
1,CC(C)c1onc(-c2c(Cl)cccc2Cl)c1COc1ccc(/C=C/c2cccc(C(=O)O)c2)c(Cl)c1,inactive: 0.0693
2,CC1=NN(c2ccccc2)C(=O)C1 [Edaravone],inactive: 0.115
3,COc1ccc(C2C(C#N)=C(N)OC3=C2C(=O)CC(c2cccc4ccccc24)C3)cc1 (stereo unspecified),inactive: 0.0538
4,C#CCC(Cc1cnc2nc(N)nc(N)c2n1)c1ccc(C(=O)N[C@@H](CCC(=O)O)C(=O)O)cc1 (stereo partly specified) [Pralatrexate],inactive: 0.101
5,C[C@]12C=CC(=O)C=C1CC[C@@H]1[C@@H]2[C@@H](O)C[C@@]2(C)[C@H]1CC[C@]2(O)C(=O)COP(=O)(O)O [Prednisolone phosphate sodium],inactive: 0.631
6,CC(C)(Oc1ccc(C(=O)c2ccc(Cl)cc2)cc1)C(=O)O [Fenofibric acid],inactive: 0.0431
7,N#Cc1ccc(Oc2ccc3c(c2)COB3O)cc1 [Crisaborole],inactive: -0.00401
8,C[N+](C)(C)CC(O)CC(=O)[O-] (stereo not drawn) [L(-)-Carnitine],inactive: 0.0318
9,COc1ccc(CN2CCNCC2)c(OC)c1OC [Trimetazidine dihydrochloride],active: 0.833
10,C[C@@H]1C[C@H]2[C@@H]3CCC4=CC(=O)C=C[C@]4(C)[C@@]3(Cl)[C@@H](O)C[C@]2(C)[C@@]1(OC(=O)c1ccco1)C(=O)CCl [Mometasone furoate],inactive: 0.528
11,COC[C@H]1C[C@@H](c2nc(-c3ccc4c(c3)COc3cc5c(ccc6nc([C@@H]7CC[C@H](C)N7C(=O)[C@@H](NC(=O)OC)C(C)C)[nH]c65)cc3-4)c[nH]2)N(C(=O)[C@H](NC(=O)OC)c2ccccc2)C1 [Velpatasvir],inactive: 0.0372

# Some of these compounds in order of count of non-hydrogen atoms, smallest number first:
row,Structure (SMILES),cell death
8,C[N+](C)(C)CC(O)CC(=O)[O-] (stereo not drawn) [L(-)-Carnitine],inactive: 0.0318
7,N#Cc1ccc(Oc2ccc3c(c2)COB3O)cc1 [Crisaborole],inactive: -0.00401
5,C[C@]12C=CC(=O)C=C1CC[C@@H]1[C@@H]2[C@@H](O)C[C@@]2(C)[C@H]1CC[C@]2(O)C(=O)COP(=O)(O)O [Prednisolone phosphate sodium],inactive: 0.631
